Results published in US20050227982A1, “Antileishmanial dinitroaniline sulfanomides with activity against parasite tubulin” (priority 2002, published 2005).

These molecules were tested on leishmanial tubulin. Conditions: leishmanial vs rat brain tubulin Kd ratio.
Format: binding, Leishmania

Compared with CCCCN(CCCC)c1c([N+](=O)[O-])cc(S(N)(=O)=O)cc1[N+](=O)[O-] [Compound 15, 4(dibutylamino)-3,5-dinitrobenzenesulfonamide], CCCCCN(CCCCC)c1c([N+](=O)[O-])cc(S(N)(=O)=O)cc1[N+](=O)[O-] [Compound 16] is higher in “Selectivity Index” value: 0.9 for the first, 4.5 for the second.

First: CCCCCCN(CCCCCC)c1c([N+](=O)[O-])cc(S(N)(=O)=O)cc1[N+](=O)[O-] [Compound 17]
Second: CCCNS(=O)(=O)c1cc([N+](=O)[O-])c(N(CCC)CCC)c([N+](=O)[O-])c1 [Compound 21, N1-Propyl-3,5-dinitro-N4,N4-di-n-propylsulfonilamide]
The “Selectivity Index” value of the first is lower: 4.9 for the first, 26.6 for the second.

With CCCN(CCC)c1c([N+](=O)[O-])cc(S(=O)(=O)Nc2ccccc2)cc1[N+](=O)[O-] [Compound 20, N1-Phenyl-3,5-dinitro-N4,N4-di-n-propylsulfonilamide] the “Selectivity Index” value was 11.4.
